Source: patent US20060216299A1, “Cell cycle targets and peptides” (Rigel Pharmaceuticals, Inc., priority 2002, published 2006)
Some of these results come from one statement about several compounds together.

Test system: A549 cells
Test: High content imaging of anti-proliferative synthetic K7 peptides (nuclei and apoptotic nuclei, 24 hours)
Type: cell-based, human
Settings: 0.8 to 25 uM, read-out: midpoint concentration of dose-dependent decrease in the number of nuclei
Description: A549 cells (American Type Culture Collection (ATCC), Manassas, Va., U.S.A.) were plated at 2000 cells/well in 96 well plates with F12K media supplemented with 10% fetal bovine serum and 1% penicillin/streptomycin and allowed to grow for 24 hours. Peptide dissolved in media was added to the cells to a final concentration ranging from 0.8 to 25 uM in triplicate. Following incubation with peptide for 24 hours, cells were fixed with 3.7% formaldehyde for 30 minutes, rinsed in PBS and stained with DAPI (Molecular Probes) to label nuclear DNA. Digital images were taken of the labeled nuclei in each well using a Zeiss Axiovert microscope, UV filter set and Photometrics camera.

Row | Substance | IC50
1 | synthetic #40 fused with seven Lys (K7) via a linker (GGEEAAKA) at the N-terminus [K7—#40] | 10 to 15 µM
2 | synthetic #41 fused with seven Lys (K7) via a linker (GGEEAAKA) at the N-terminus [K7—#41] | 10 to 15 µM
